This assay deals with primary human hepatic stellate cells (donor 1). As to the kind of experiment: percent Bodipy-positive cells; higher = more lipid droplet accumulation. The note with it: 48 h. On the procedure: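 Primary lipid accumulation screen in primary human hepatic stellate cell myofibroblasts (donor 1, passage 8) in 384-well plates. 100 nL of library compound was pin-transferred into 30 µL medium in duplicate, and cells were treated for 48 h. The 'Scaled' score combines distance from plate baseline, toxicity and reproducibility penalties, and is normalised to nortriptyline (positive) and DMSO (negative) controls on each plate. A hit is defined as scaled >0.85 or among the top 3 wells per plate.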

Setting [1] is: library stock concentration: 3.33 mM.
Where [2] appears, read: library stock concentration: 10 mM.
The mark [3] stands for this setting: library stock concentration: 80 uM.
[4] abbreviates: library stock concentration: 400 uM.
The mark [5] stands for this setting: library stock concentration: 1 mM.

From the supplement of paper PMC9135407 come the findings set out here.

Values joined by “and” are separate entries in the source; they are usually repeats but may differ in a detail not shown here. Equal values may be shown once. Where a name gives a salt, the structure may show the parent alone. ± gives the standard deviation of the averaged measurements. This is one part of the list. Baselines shift from plate to plate; read single values as rough.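 Assay uses culture-activated primary human stellate myofibroblasts; lipid droplet recovery indicates inactivation. Measured: proportion of Hoechst-counted cells over a plate-specific Bodipy cutoff, duplicate wells, DMSO and nortriptyline as per-plate negative and positive controls. A hit scores, control-normalized, above the plate's top-tenth-percentile nortriptyline wells or ranks among its three best wells. Final well concentrations not reported.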

Consider `CC(=O)OCC(=O)[C@@]12OC(C)(C)O[C@@H]1C[C@H]1[C@@H]3C[C@H](F)C4=CC(=O)C=C[C@]4(C)[C@@]3(F)[C@@H](O)C[C@@]12C` [Fluocinonide], for which the “percent Bodipy-positive cells” value was 6.85 ± 2.3%. Under setting [1], the “percent Bodipy-positive cells” value was determined as 6.47 ± 1.5%. Moreover, the “percent Bodipy-positive cells” value (library stock concentration: 4 mM) was 4.36 ± 1.7%. Further, the “percent Bodipy-positive cells” value under setting [2] was 15.6% and 13.2%.

For the compound `COC(=O)C1=CO[C@@H](C)[C@H]2CN3CCc4c([nH]c5ccccc45)[C@@H]3C[C@H]12` [Ajmalicine hydrochloride], the “percent Bodipy-positive cells” value stood at 50.6 ± 18%.

Consider `CC(C=CC(=O)NO)=CC(C)C(=O)c1ccc(N(C)C)cc1` (stereo unspecified) [Trichostatin A (TSA)], for which the “percent Bodipy-positive cells” value reads like this: under setting [1], 64.7 ± 0.83%; under setting [2], 78.9 ± 9.8%.

In the case of `Cc1cc(Nc2cc(N3CCN(C)CC3)nc(C=Cc3ccccc3)n2)n[nH]1`, the “percent Bodipy-positive cells” value under setting [1] was 89.5 ± 3%.

`CCN(CC)CC(=O)Nc1c(C)cccc1C` [Lidoca?ne hydrochloride]: the “percent Bodipy-positive cells” value turned out to be 28.1 ± 2.6%.

Turning to `CCN(CC)CC(=O)Nc1c(C)cccc1C` [Lidocaine?HCl?H2O], where the note is “library stock concentration: 17.3 mM”, the “percent Bodipy-positive cells” value came out at 9.11 ± 1.4%.

Take `CCN(CC)CC(=O)Nc1c(C)cccc1C` [Lidocaine hydrochloride]: the “percent Bodipy-positive cells” value under setting [2] was 28.6% and 25.7%.

Turning to `CCN(CC)CC(=O)Nc1c(C)cccc1C`, the “percent Bodipy-positive cells” value (library stock concentration: 9.6 mM) came to 11.6 ± 0.4%.

On to `CCN(CC)CC(=O)Nc1c(C)cccc1C` [Lidocaine], for which the “percent Bodipy-positive cells” value under setting [1] was determined as 11.8 ± 1.1% and the “percent Bodipy-positive cells” value under setting [2] was 19.7 ± 4.3%.

For the compound `CN(c1ccccc1CNc1nc(Nc2ccc3c(c2)CC(=O)N3)ncc1C(F)(F)F)S(C)(=O)=O`, the “percent Bodipy-positive cells” value is 9.25 ± 3% under setting [3]; 10.5% and 12.5% under setting [4]; 34.5% and 45.9% under setting [2].

In the case of `O=C1NS(=O)(=O)c2ccccc21` [Saccharin], the “percent Bodipy-positive cells” value runs as follows: under setting [2], 24.8 ± 1.9%; (library stock concentration: 10.9 mM) 23.7 ± 1.9%.

Take `NS(=O)(=O)c1cc2c(cc1Cl)NC(C1CC3C=CC1C3)NS2(=O)=O` (stereo unspecified) [Cyclothiazide]: where the note is “library stock concentration: 5.1 mM”, the “percent Bodipy-positive cells” value stood at 11.3 ± 3.2%.

Regarding `CC(=O)CC(c1ccccc1)c1c(O)c2ccccc2oc1=O` (stereo unspecified) [(?)-Warfarin], the “percent Bodipy-positive cells” value under setting [5] is 11.35 ± 0.012%.

As for `CC(=O)CC(c1ccccc1)c1c(O)c2ccccc2oc1=O` (stereo unspecified), the “percent Bodipy-positive cells” value under setting [2] amounted to 26.4 ± 5%.

`CC(=O)CC(c1ccccc1)c1c(O)c2ccccc2oc1=O` (stereo unspecified) [Warfarin]: the “percent Bodipy-positive cells” value under setting [2] was determined as 19.9 ± 0.73%.

With `S=C(S)N1CCCC1` [Pyrrolidinedithiocarbamate ammonium], the “percent Bodipy-positive cells” value under setting [2] was 17.1 ± 1.7%.

For `S=C(S)N1CCCC1` [Ammonium pyrrolidinedithiocarbamate], the “percent Bodipy-positive cells” value under setting [2] was 16.06 ± 0.05%.

With `CCCCCCCCCCCCCCCCCC(=O)N[C@H]1CCOC1=O` [N-octadecanoyl-L-Homoserine lactone], under setting [5], the “percent Bodipy-positive cells” value was found to be 11.1 ± 4.7%.

As to `CO[C@@H]1[C@@H](O[C@@H]2O[C@H](C)[C@@H](O[C@H]3C[C@@](C)(O)[C@@H](OC(=O)CC(C)C)[C@H](C)O3)[C@H](N(C)C)[C@H]2O)[C@@H](CC=O)C[C@@H](C)[C@@H](O)/C=C/C=C/C[C@@H](C)OC(=O)C[C@H]1OC(C)=O` [Josamycin], the “percent Bodipy-positive cells” value worked out at 28.3 ± 10%.

For the compound `CSC(=N)NCCC[C@H](N)C(=O)O` [S-Methyl-L-thiocitrulline acetate], the “percent Bodipy-positive cells” value under setting [2] came out at 28.3 ± 5.7%.

Turning to `O=c1oc2c(O)c(O)cc3c(=O)oc4c(O)c(O)cc1c4c23` [Ellagic acid], the “percent Bodipy-positive cells” value by setting is: under setting [3], 8.85 ± 1.5%; under setting [4], 33.1 ± 31%; (library stock concentration: 2 mM) 5.13 ± 0.6%.
